# Some of the results follow.
# Amino acid sequences for entries named in this document (tags omitted).
# UniProt Q0JBA9, entry or part of it: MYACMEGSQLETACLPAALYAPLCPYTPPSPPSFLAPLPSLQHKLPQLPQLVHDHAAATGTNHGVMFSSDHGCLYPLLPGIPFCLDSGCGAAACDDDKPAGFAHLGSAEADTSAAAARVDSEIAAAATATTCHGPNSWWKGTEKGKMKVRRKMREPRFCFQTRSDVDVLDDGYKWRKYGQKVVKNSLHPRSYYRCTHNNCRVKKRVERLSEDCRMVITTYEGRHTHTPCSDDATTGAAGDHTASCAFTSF
# Biological target: OsWRKY34 (Oryza sativa, UniProt Q0JBA9 1-250)
# Test: protein-binding microarray (RPBM); PBS, 2% BSA, 51.3 ng/ul salmon testes DNA, 50 uM zinc acetate, 200 nM TF, 25 C, 1 h; high values mean tight binding
# Conditions: protein: recombinant; tags: N-terminal polyhistidine and DsRed monomer fusion (pET32a); label: CyDye5-dUTP incorporated in the synthesized complementary strand; 3' TTTTT single-stranded linker to array surface; dsDNA, one strand shown
# Summary of the method: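 The binding signal for each feature is its fluorescence intensity in arbitrary units. An Axon 4000B scanner was used to read a custom Agilent array that had been made double-stranded with Cy5-dUTP primer extension, blocked with 2% BSA, incubated at 25 °C for 1 h with 200 nM protein in PBS, 2% BSA, salmon testes DNA and 50 µM zinc acetate, and washed. The protein was an N-terminal polyhistidine–DsRed transcription factor fusion from E. coli BL21-CodonPlus, purified on Ni–NTA.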
row,Sequence,binding signal
1,CCTCCGCCTCATCAGTGCTGCCACCACTACCGCAGTTGCTCGGAGTCACCTAGTGCAG,8950 fluorescence intensity (a.u.)
2,TGGTTTGATAGTTTCTCATATCTTCGTATCGTTATTAAGACGGAGTCACCTAGTGCAG,8180 fluorescence intensity (a.u.)
3,TCACCTAGATATTACCTATACATTCGTCAACAAATTTTCTCGGAGTCACCTAGTGCAG,8330 fluorescence intensity (a.u.)
4,AAGTGTTTAGGCCTGTTTAGTTCGCGAAAAAAAAAATTTTCGGAGTCACCTAGTGCAG,8030 fluorescence intensity (a.u.)
5,GTCGACACCTATTTGCTGTTTTGTGTAGTAGTGAAAATTTCGGAGTCACCTAGTGCAG,8390 fluorescence intensity (a.u.)
6,TGCCCACTTCTATACATATTATGTCCTTTTTTTCACATGTCGGAGTCACCTAGTGCAG,8160 fluorescence intensity (a.u.)
7,AGTTGATCGCGGTCAAATCGTCACGTTAGTTGAACCCGGTCGGAGTCACCTAGTGCAG,8260 fluorescence intensity (a.u.)
8,GATCAGGTCCTTCTTAACTTTGCCATCTAGCTTTATGGACCGGAGTCACCTAGTGCAG,8060 fluorescence intensity (a.u.)
9,GCATGACGTCGCCCGTGTCACTTCGCTCTGAGAGCCCTACCGGAGTCACCTAGTGCAG,9580 fluorescence intensity (a.u.)
10,AACGCACATGTAAGTTACCACCTCTTCTTCTTCATCTACTCGGAGTCACCTAGTGCAG,9400 fluorescence intensity (a.u.)
11,CATTTTGTAATTTGCCCTTGAACATGTGTTGTTACAATTTCGGAGTCACCTAGTGCAG,8980 fluorescence intensity (a.u.)
12,CTATTTTGCTATCTAGGTCATGCATGTTATTTTTTCTTCTCGGAGTCACCTAGTGCAG,10300 fluorescence intensity (a.u.)
13,CATCGCTCCATCTCATTTTCATTGTTCATCTGTTTGCATTCGGAGTCACCTAGTGCAG,8730 fluorescence intensity (a.u.)
14,ATATCTCCCTTTTTTTTTTGCGGTTTCGCCATGGCTTTCTCGGAGTCACCTAGTGCAG,10600 fluorescence intensity (a.u.)
15,GGTTTTGTTAGTTGAGGGACGTCTGGTATCTGGTTTCAGGCGGAGTCACCTAGTGCAG,8800 fluorescence intensity (a.u.)
16,GCAATATGTTTGAGATCCTAAGAAATCCGTTGACCGGATTCGGAGTCACCTAGTGCAG,12300 fluorescence intensity (a.u.)
17,AACTCCAAATGTACAAAGCACCCATGATCCAGCCAGTCCACGGAGTCACCTAGTGCAG,8540 fluorescence intensity (a.u.)
18,TGTGATTTTTCTCGGGTCGCTACTGTTCATTGCGCGCCAGCGGAGTCACCTAGTGCAG,12000 fluorescence intensity (a.u.)
19,AGATCTCTACCCACGATCTTTGTGATTTCCTTGTGAGATTCGGAGTCACCTAGTGCAG,10700 fluorescence intensity (a.u.)
20,TACGTGTCTCCAGCGCCGTGGGGTGGGAGTGGGATACAGTCGGAGTCACCTAGTGCAG,11000 fluorescence intensity (a.u.)
21,GACCTATTTTCGCGATTTTCCCCGGTTGACCACTACTTTTCGGAGTCACCTAGTGCAG,13100 fluorescence intensity (a.u.)

row,Sequence,binding signal
1,AAAGGCACGAACCTCTTTTTCTCGTCGTCCATGGCGATAGCGGAGTCACCTAGTGCAG,8480 fluorescence intensity (a.u.)
2,CCCACCTCCACTACTCCATTTACTTTGCTACTCCCTTCTCCGGAGTCACCTAGTGCAG,8840 fluorescence intensity (a.u.)
3,ATTTCTTACGTTGTTGCAGCTTTGTTTTTTTTGCTTATTTCGGAGTCACCTAGTGCAG,14900 fluorescence intensity (a.u.)
4,CCAACAAGTTGACCTTGACCACATGCCTGCGCCTTTGACCCGGAGTCACCTAGTGCAG,11000 fluorescence intensity (a.u.)
5,TCTCCCTCAGTTACTGCCTTGCTCCCCAACCCCAGGAGCACGGAGTCACCTAGTGCAG,9230 fluorescence intensity (a.u.)
6,TTTGTTTTCTACTTAATTGACCATACTCCAGTCCTACTCCCGGAGTCACCTAGTGCAG,8730 fluorescence intensity (a.u.)
7,TGTTTCTTCTCCTCCTACTACTACTACTACTACTTCACATCGGAGTCACCTAGTGCAG,8920 fluorescence intensity (a.u.)
8,CATGGTTCATTATGCAACTTGGGTAATAGTTCCTTCTTTTCGGAGTCACCTAGTGCAG,8200 fluorescence intensity (a.u.)
9,TCCTTGCTCCATCAGTATTACACCACCCAACACAAGCTCACGGAGTCACCTAGTGCAG,8870 fluorescence intensity (a.u.)
10,TTGTCTTTTGTTCTCAGAGCTCCATTGGTTGACTTAATAACGGAGTCACCTAGTGCAG,10500 fluorescence intensity (a.u.)
11,AAAGCAATCATTCCCCTGTTTTGCTGCCAATTGCAGCTTTCGGAGTCACCTAGTGCAG,8900 fluorescence intensity (a.u.)
12,GCATCGCATCGCATCCCCAAATCTCGTTTCCGTCCAAGTCCGGAGTCACCTAGTGCAG,8520 fluorescence intensity (a.u.)
13,GGCGAAGGCATGTTCCCAAGTTATACTCACTTGTTTTTCACGGAGTCACCTAGTGCAG,9130 fluorescence intensity (a.u.)
14,AGTCACACTCCGGCCCGCACTTACGTCATAATCCCGTTCCCGGAGTCACCTAGTGCAG,13400 fluorescence intensity (a.u.)
15,GATCGTGAGTCGTGACACTACTAATTCCATATTACCTCACCGGAGTCACCTAGTGCAG,8170 fluorescence intensity (a.u.)
16,CACGTCGTACCCACTCGTCCTCGGCTCCTCGCGCGGTCACCGGAGTCACCTAGTGCAG,11300 fluorescence intensity (a.u.)
17,TGGAGCCACACGTCGGTCAGTTCGTCACCCACACGCTACACGGAGTCACCTAGTGCAG,8240 fluorescence intensity (a.u.)
18,AATTGAAACCTAATCGCATATTTGCATTGCATTTTTTCTGCGGAGTCACCTAGTGCAG,8740 fluorescence intensity (a.u.)
19,TCACCTTTATCGATCTAAAAAAGCTGTGTTTATTTTTACACGGAGTCACCTAGTGCAG,8340 fluorescence intensity (a.u.)
20,CCGCCGCCTCACTCTCCGTCTCCGACGCCGCCGCTAAGCTCGGAGTCACCTAGTGCAG,8520 fluorescence intensity (a.u.)
21,CCGTTTTTAATATATGACACCGTTAATTTTTTTCACGTTTCGGAGTCACCTAGTGCAG,8930 fluorescence intensity (a.u.)

row,Sequence,binding signal
1,GATTATCTCTTCTTCACCTGCAATGCTAATACCTTCCACTCGGAGTCACCTAGTGCAG,8770 fluorescence intensity (a.u.)
2,TATGTTTGTTATGTTGTGTGCCATCGAGCAGATGATAAATCGGAGTCACCTAGTGCAG,8300 fluorescence intensity (a.u.)
3,GGACAAGTAAATTGTATGTCAGCCACACTTGCTTATGTGACGGAGTCACCTAGTGCAG,8680 fluorescence intensity (a.u.)
4,TCATCCCAGCATTGTTGTTTGCCTGAATTAGTTGTAGAAACGGAGTCACCTAGTGCAG,8630 fluorescence intensity (a.u.)
5,TCCTCCCTCCCCTCCACCTCGCCGCCGCCGCCGCCGCCGCCGGAGTCACCTAGTGCAG,8760 fluorescence intensity (a.u.)
6,CTTGCTCATCTACCATTTGCCTCTTCAGCAACAGCTTAGACGGAGTCACCTAGTGCAG,12600 fluorescence intensity (a.u.)
7,GTTAGTCCCTAGTTCCCAAATACCCCTTAGTCGAGCAGTTCGGAGTCACCTAGTGCAG,8340 fluorescence intensity (a.u.)
8,TATTCCTCGCTTAAATTGTGGGGTGGTATTATTATCCTTACGGAGTCACCTAGTGCAG,12600 fluorescence intensity (a.u.)
9,TTCTCTTCCTCGTTTTTGTTCAGGGTCATCACTTGCTGTCCGGAGTCACCTAGTGCAG,9040 fluorescence intensity (a.u.)
10,GGAGCTCATCACTGGCCAGCTGCCGCCGCCGCCGCCACCACGGAGTCACCTAGTGCAG,8240 fluorescence intensity (a.u.)
11,TGGACATATCCCATCCATGCATGACCGTGAACCAAACACACGGAGTCACCTAGTGCAG,8100 fluorescence intensity (a.u.)
12,GTCCACAACTATACAACCCACAAGCGTGGCGCTGCGCCACCGGAGTCACCTAGTGCAG,8360 fluorescence intensity (a.u.)
13,AACTGAAACTCTGAACTTGACATCCATATGCGACTAATTCCGGAGTCACCTAGTGCAG,8520 fluorescence intensity (a.u.)
14,GAGGACGCTTCGATCGACTCATCATCGTATTCTTGTAGTACGGAGTCACCTAGTGCAG,8040 fluorescence intensity (a.u.)
15,TTCTTTTGCCGTGCTCCCAGATTCTCCGGTCGCCACGACTCGGAGTCACCTAGTGCAG,8590 fluorescence intensity (a.u.)
16,TTACTACTTCACCGTCTCTTTTTCTTCCTCAGCGCACAAACGGAGTCACCTAGTGCAG,9610 fluorescence intensity (a.u.)
17,CATATTCCTTAGCTATGGGTCTGACACCTGTTCATTCTTCCGGAGTCACCTAGTGCAG,13700 fluorescence intensity (a.u.)
18,GTCGTTCGCTCTTTTATCCTTTTCGGACAATTTCACTTTCCGGAGTCACCTAGTGCAG,19200 fluorescence intensity (a.u.)
19,AGTTTGTCATGGATCCATCATCCATCGATTTGTTTTCTCTCGGAGTCACCTAGTGCAG,12600 fluorescence intensity (a.u.)
20,CATATTATAAATCATTTGACTTTTTTCATATTCAAAATTTCGGAGTCACCTAGTGCAG,9090 fluorescence intensity (a.u.)
21,ACATATTCCCTGCACCCTGCTAGCTACCTTGAGTTGCAATCGGAGTCACCTAGTGCAG,9180 fluorescence intensity (a.u.)

# Part of the list above, bar-delimited.
row | Sequence | binding signal
12 | GTCCACAACTATACAACCCACAAGCGTGGCGCTGCGCCACCGGAGTCACCTAGTGCAG | 8360 fluorescence intensity (a.u.)
13 | AACTGAAACTCTGAACTTGACATCCATATGCGACTAATTCCGGAGTCACCTAGTGCAG | 8520 fluorescence intensity (a.u.)

# The listing continues:

row,Sequence,binding signal
1,CGCGTCCATCGGATTGATCGATCGGTTGTTGCTGGCCATGCGGAGTCACCTAGTGCAG,8170 fluorescence intensity (a.u.)
2,CCGTGCTCGCCGCCGTCAACTTGGGCTACTTCCTTTTGTGCGGAGTCACCTAGTGCAG,9650 fluorescence intensity (a.u.)
3,AAGCCCAGTTCCGGTTTTGACACTATCAAATTTGAGAATTCGGAGTCACCTAGTGCAG,8740 fluorescence intensity (a.u.)
4,TGACCACCATTGCTGCTTCTGCTTCTTCTTGTATGTATACCGGAGTCACCTAGTGCAG,17200 fluorescence intensity (a.u.)
5,AAAACTTTAATTTTGTTGCTTCCTTTATTGGCTACTCCTACGGAGTCACCTAGTGCAG,8460 fluorescence intensity (a.u.)
6,GTCTGTCATCCCTGTCTGAATTTGGGGAAGCTGGATTCAACGGAGTCACCTAGTGCAG,8350 fluorescence intensity (a.u.)
7,GGTAGTCGGCGGAGGTGGCGAGGTCGAGGGAGGGGAAGATCGGAGTCACCTAGTGCAG,8450 fluorescence intensity (a.u.)
8,ATTTGTGTTGTTGTGACTTGTTTTGTGGTATTTTAAACATCGGAGTCACCTAGTGCAG,12400 fluorescence intensity (a.u.)
9,GACCTTTGAGCTGTACTCTTTTCTTTGTCATGGTTTTCTCCGGAGTCACCTAGTGCAG,8480 fluorescence intensity (a.u.)
10,ATATCAATCTCTTCTCCTCATCGATCCTCAACATCTCCCTCGGAGTCACCTAGTGCAG,8210 fluorescence intensity (a.u.)
11,GAAGTCATGCTTATGTCTGCATCCGTTTCTTGCTTTGACTCGGAGTCACCTAGTGCAG,11400 fluorescence intensity (a.u.)
12,CGGTAGTGCGTTAGGTCTTCTCCAAGTCTCTTGGCTTTTACGGAGTCACCTAGTGCAG,11100 fluorescence intensity (a.u.)
13,CTCCGGGCTCACAGTTTCTTGATTTCCCCATTCTTTTTTCCGGAGTCACCTAGTGCAG,9010 fluorescence intensity (a.u.)
14,GACTTGACCGTTTTTCAATTTCGCTTCGGACAAAAATATGCGGAGTCACCTAGTGCAG,9210 fluorescence intensity (a.u.)
15,CAAAACATTACAATTCCACGAGTCCGCGACCTGTTCTACTCGGAGTCACCTAGTGCAG,9990 fluorescence intensity (a.u.)
16,GCAACACGATCTCGTCGATCTCGTCCTCGACCCTTCAGAACGGAGTCACCTAGTGCAG,8850 fluorescence intensity (a.u.)
17,ATATGGCCACTCGTCCATCTCTCGTTTTCTCCAGCCAGGTCGGAGTCACCTAGTGCAG,8150 fluorescence intensity (a.u.)
18,CGTCCTGCTGCTCCCGCTGCATCCGTTACGCACGTCCTCTCGGAGTCACCTAGTGCAG,8620 fluorescence intensity (a.u.)
19,GTGCCGTGAGCCGTGTCGACCGTGGTCGCCCTCCAAAGTCCGGAGTCACCTAGTGCAG,9250 fluorescence intensity (a.u.)
20,AATTTTGATAGATGTGGGATGTGTTGTAATTTGTAAATTTCGGAGTCACCTAGTGCAG,8270 fluorescence intensity (a.u.)
21,GCCATCTTGCGAGAAATGGCTGCCTCCGGCGTTGACTCGGCGGAGTCACCTAGTGCAG,11200 fluorescence intensity (a.u.)

# A few values from the list.
# Entry for AATTTTGATAGATGTGGGATGTGTTGTAATTTGTAAATTTCGGAGTCACCTAGTGCAG under binding signal: 8270 fluorescence intensity (a.u.)
# Entry for CCGTGCTCGCCGCCGTCAACTTGGGCTACTTCCTTTTGTGCGGAGTCACCTAGTGCAG under binding signal: 9650 fluorescence intensity (a.u.)
# Entry for AAGCCCAGTTCCGGTTTTGACACTATCAAATTTGAGAATTCGGAGTCACCTAGTGCAG under binding signal: 8740 fluorescence intensity (a.u.)
